Data as given in PubChem BioAssay AID1259254 (NCATS, 2017)
This is a random part of about 59,000 reagents tested. Over the whole deposit, about 1,550 (2.6%) got an active call. 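G2 share is only a proxy for re-replication; each gene was hit by three separate siRNAs, and active genes were retested.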 Entries without a mark were called inactive. Reagents against one gene are numbered here. Not all columns of the deposit are shown. The record does not give: the amount of reagent.

- Assay: 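Gene knock-downs that lead to re-replication, shown by excess G2 DNA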 (primary screen)
- Cell system: human HCT116 colorectal cancer cells
- Reagents: single siRNA against human genes
- Duration: 3 days
- Detection: 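Nuclei stained with Hoechst and imaged; cell-cycle phase assigned by DNA content; G2 share scaled per plate, non-targeting siRNA 0%, GMNN siRNA 100%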
- Reading the numbers: G2 robust z-score: higher = more G2 cells, more excess DNA replication
- Rule for the call: 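Active siRNAs have a G2 robust z of 5 or more median absolute deviations over the median, which in these data means about 38% or higher of GMNN control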

| Gene | reagent no. | G2 robust z-score |
| --- | --- | --- |
| PSENEN | 1 | -0.108 |
| PSENEN | 2 | 0.153 |
| PSENEN | 3 | 0.554 |
| GALT | 1 | 6.65 (active) |
| GALT | 2 | -1.14 |
| GALT | 3 | -0.289 |
| KBTBD12 | 1 | -0.976 |
| KBTBD12 | 2 | -0.0615 |
| KBTBD12 | 3 | -0.356 |
| XAGE1B | 1 | 0.68 |
| XAGE1B | 2 | -0.348 |
| XAGE1B | 3 | -0.498 |
| SPHKAP | 1 | 2.79 |
| SPHKAP | 2 | 1.94 |
| SPHKAP | 3 | 0.282 |
| ARPP21 | 1 | 2.35 |
| ARPP21 | 2 | -0.692 |
| ARPP21 | 3 | -0.0551 |
| GSDMD | 1 | 5.61 (active) |
| GSDMD | 2 | 0.537 |
| GSDMD | 3 | 1.99 |
| EPCIP | 1 | -0.594 |
| EPCIP | 2 | -0.789 |
| EPCIP | 3 | 2.65 |
| DGKE | 1 | -0.103 |
| DGKE | 2 | -0.0772 |
| DGKE | 3 | -0.251 |
| C2CD4C | 1 | -0.337 |
| C2CD4C | 2 | -0.0303 |
| C2CD4C | 3 | 1.49 |
| SMCO3 | 1 | 0.656 |
| SMCO3 | 2 | -0.404 |
| SMCO3 | 3 | 6.55 (active) |
| FAAH | 1 | 0.653 |
| FAAH | 2 | -1.26 |
| FAAH | 3 | 2.61 |
| SUPT3H | 1 | 0.236 |
| SUPT3H | 2 | 1.56 |
| SUPT3H | 3 | -0.874 |
| COA1 | 1 | 3.61 |
| COA1 | 2 | 1.69 |
| COA1 | 3 | -0.556 |
| TBC1D24 | 1 | -0.415 |
| TBC1D24 | 2 | -0.148 |
| TBC1D24 | 3 | -0.818 |
| ZNF133 | 1 | -0.997 |
| ZNF133 | 2 | 0.649 |
| ZNF133 | 3 | -0.369 |

Entries listed above marked active, once more:
| Gene | reagent no. | G2 robust z-score |
| --- | --- | --- |
| GALT | 1 | 6.65 (active) |
| GSDMD | 1 | 5.61 (active) |
| SMCO3 | 3 | 6.55 (active) |
